These are yes or no findings as the source states them, for the method shown. In cells and extracts the contact can be indirect. Here binding means that the protein was enriched with, or labelled near, the bait; the list need not be complete. Where a sequence is shown, tags or fusion partners need not be part of it.
Target: T1, FLAG-tagged wild-type full-length CDKAL1 (UniProt Q5VV42)
T1 sequence: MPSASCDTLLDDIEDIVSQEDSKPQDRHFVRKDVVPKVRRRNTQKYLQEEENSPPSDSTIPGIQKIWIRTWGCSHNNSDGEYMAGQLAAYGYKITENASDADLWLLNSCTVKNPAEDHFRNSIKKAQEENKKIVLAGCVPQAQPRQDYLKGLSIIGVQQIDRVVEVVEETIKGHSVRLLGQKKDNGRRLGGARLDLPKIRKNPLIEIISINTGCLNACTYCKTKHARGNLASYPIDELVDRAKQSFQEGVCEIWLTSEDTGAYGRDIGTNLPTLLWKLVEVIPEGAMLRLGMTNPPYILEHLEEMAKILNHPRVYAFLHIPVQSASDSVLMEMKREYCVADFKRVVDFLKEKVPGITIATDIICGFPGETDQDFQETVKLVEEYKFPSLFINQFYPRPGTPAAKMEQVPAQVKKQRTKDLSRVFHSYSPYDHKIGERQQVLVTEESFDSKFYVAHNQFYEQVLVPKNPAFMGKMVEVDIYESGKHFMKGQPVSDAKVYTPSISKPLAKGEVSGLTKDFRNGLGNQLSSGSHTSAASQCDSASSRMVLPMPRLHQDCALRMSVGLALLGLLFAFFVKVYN
Experiment: affinity purification with mass spectrometry; FLAG-tagged CDKAL1 immunoprecipitated from transfected HEK293 cells, mass spectrometry as in the BioPlex project, analysis as in COMPASS

Sequences of proteins named here, by UniProt entry; tags and fusion partners are left off.
UniProt P12235: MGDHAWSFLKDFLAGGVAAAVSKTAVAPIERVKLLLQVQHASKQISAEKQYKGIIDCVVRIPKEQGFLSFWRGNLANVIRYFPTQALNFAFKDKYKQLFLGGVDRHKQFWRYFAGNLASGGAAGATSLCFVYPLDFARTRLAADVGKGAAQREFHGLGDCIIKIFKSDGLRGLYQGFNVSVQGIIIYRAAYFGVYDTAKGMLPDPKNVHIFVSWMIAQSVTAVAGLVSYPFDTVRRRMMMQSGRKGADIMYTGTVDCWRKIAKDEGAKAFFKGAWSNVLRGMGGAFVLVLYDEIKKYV

## ANT1/SLC25A4, endogenous (from UniProt P12235 1-298)
  binding: binds
